This experiment addresses T1, SPECC1L (wildtype) (mouse (endogenous in embryonic tissue)) (UniProt Q2KN98).
T1 sequence: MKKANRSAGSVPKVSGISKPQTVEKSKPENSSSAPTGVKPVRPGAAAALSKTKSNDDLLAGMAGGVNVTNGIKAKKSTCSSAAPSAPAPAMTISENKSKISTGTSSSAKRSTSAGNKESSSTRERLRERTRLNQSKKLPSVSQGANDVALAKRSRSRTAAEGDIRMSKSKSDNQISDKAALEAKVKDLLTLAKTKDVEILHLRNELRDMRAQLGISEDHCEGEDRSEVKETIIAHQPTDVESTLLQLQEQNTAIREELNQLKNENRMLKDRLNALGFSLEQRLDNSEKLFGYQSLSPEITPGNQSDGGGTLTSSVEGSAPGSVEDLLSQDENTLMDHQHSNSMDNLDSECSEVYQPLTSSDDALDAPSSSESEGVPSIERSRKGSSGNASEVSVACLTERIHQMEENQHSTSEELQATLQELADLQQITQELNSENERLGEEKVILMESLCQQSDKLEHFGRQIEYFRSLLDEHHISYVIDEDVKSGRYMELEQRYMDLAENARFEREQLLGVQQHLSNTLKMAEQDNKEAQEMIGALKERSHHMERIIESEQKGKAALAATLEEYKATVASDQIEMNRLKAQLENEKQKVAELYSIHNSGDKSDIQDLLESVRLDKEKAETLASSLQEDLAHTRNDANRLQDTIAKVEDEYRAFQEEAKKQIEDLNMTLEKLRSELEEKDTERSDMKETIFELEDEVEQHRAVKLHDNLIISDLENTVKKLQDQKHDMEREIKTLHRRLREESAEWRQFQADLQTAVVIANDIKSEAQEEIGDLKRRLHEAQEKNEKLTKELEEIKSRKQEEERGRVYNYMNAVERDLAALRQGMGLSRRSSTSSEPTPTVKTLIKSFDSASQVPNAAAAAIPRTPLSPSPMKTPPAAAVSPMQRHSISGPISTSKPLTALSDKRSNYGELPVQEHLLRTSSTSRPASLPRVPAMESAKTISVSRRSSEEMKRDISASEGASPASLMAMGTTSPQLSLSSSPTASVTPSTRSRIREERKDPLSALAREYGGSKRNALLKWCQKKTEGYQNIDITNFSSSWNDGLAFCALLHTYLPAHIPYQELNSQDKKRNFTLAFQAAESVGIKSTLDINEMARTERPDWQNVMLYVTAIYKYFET
The experiment can be described thus: co-IP.

Sequences of proteins named here, by UniProt entry; tags and fusion partners are left off.
UniProt Q61879: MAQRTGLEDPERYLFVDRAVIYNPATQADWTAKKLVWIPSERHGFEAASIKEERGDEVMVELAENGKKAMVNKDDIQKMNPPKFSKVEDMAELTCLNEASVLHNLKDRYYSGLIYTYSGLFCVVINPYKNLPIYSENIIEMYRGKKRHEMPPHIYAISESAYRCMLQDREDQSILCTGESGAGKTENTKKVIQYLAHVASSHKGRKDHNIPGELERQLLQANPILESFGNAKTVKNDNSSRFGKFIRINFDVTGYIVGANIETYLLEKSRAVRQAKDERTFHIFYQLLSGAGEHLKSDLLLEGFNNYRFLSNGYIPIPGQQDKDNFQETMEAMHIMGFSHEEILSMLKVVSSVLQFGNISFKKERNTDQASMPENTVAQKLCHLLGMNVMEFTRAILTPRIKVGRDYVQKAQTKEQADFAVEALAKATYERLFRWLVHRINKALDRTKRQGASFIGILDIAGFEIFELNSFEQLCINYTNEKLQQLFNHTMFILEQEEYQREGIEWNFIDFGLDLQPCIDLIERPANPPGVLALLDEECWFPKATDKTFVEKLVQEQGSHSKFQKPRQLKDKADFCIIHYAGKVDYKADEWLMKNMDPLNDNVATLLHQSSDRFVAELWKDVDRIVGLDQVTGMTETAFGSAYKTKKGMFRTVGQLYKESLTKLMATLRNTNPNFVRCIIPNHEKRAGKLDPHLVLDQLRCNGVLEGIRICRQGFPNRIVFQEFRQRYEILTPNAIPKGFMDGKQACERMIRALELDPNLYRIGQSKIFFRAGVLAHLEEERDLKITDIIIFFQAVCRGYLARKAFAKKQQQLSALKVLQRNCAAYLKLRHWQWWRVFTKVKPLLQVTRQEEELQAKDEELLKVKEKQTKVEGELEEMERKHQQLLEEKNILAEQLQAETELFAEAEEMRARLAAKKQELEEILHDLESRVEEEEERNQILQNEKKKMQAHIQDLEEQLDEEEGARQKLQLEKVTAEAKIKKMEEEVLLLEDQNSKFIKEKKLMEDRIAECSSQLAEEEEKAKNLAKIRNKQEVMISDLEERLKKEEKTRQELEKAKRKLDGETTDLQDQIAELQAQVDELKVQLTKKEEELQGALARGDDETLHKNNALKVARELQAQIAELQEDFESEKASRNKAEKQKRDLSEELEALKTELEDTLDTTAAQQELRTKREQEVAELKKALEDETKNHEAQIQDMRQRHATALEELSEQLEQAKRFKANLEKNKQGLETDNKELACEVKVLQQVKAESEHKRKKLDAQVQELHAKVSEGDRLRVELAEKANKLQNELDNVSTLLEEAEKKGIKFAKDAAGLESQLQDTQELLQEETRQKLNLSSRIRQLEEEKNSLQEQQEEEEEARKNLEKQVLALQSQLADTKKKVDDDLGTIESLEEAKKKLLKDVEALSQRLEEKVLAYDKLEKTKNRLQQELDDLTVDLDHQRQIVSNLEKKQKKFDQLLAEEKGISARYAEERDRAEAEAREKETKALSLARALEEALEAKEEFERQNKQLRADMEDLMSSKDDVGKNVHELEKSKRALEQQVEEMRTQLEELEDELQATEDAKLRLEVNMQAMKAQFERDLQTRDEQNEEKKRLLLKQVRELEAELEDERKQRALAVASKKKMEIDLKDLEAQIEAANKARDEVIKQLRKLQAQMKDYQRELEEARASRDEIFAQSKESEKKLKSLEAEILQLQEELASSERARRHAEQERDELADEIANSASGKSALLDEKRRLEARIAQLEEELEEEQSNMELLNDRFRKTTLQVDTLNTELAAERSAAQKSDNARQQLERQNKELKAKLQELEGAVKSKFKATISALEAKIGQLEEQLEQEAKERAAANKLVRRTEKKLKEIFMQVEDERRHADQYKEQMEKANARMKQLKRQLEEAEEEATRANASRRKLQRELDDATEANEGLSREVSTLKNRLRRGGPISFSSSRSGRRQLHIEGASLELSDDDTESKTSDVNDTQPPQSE

These are yes or no findings as the source states them, for the method shown. Binding seen in cells or lysates may run through a third protein. Some entries that bind do so weakly or less than the wild type.

Regarding “non-muscle myosin IIB (NM-IIB) component MYH10 (from UniProt Q61879 1-1976)”, the binding entry is recorded as “binds”.

For the origin of these results see paper doi:10.1101/2021.01.28.428634.
